Laboratory results reported in paper PMC5893645.
The exact form of at least one protein or probe is not confirmed. For some assays here: At least one verdict was read from the data and is not stated in words by the source.

Legend:
[1] = test system: MBP-ZmDREB4.1(31-147) (Zea mays); assay: competition with a labelled probe; settings: unlabelled competitor against biotin-3xDRE; LightShift Chemiluminescent EMSA Kit (Thermo), manufacturer's instructions; pH and temperature not stated; recombinant protein; protein details: N-terminal MBP (pMAL-C2x)
[2] = test system: MBP-ZmDREB4.1(31-147) (Zea mays); assay: EMSA; settings: LightShift Chemiluminescent EMSA Kit (Thermo), manufacturer's instructions; pH and temperature not stated; recombinant protein; protein details: N-terminal MBP (pMAL-C2x); label: 5' biotin

“GATATACTACCGACATGAGTTCGATATACTACCGACATGAGTTCGATATACTACCGACATGAGTTC (double strand) [3xDRE competitor 1 (unlabelled)]”: binds [1].
“GATATACTACCGACATGAGTTCGATATACTACCGACATGAGTTCGATATACTACCGACATGAGTTC (double strand) [3xDRE probe (biotin)]”: binds [2].
